Reference: US4771037 (dated 1988)

Assay: general procedure: solution-phase peptide synthesis
Conditions: late stage modification step

N-[1-(R)-Carboxy-3-methylbutyl]-L-leucyl-L-leucyl-L-leucyl-L-alaninamide
step yield: 96%
